The assay has as its target T1, CpeCA (Clostridium perfringens, UniProt A0A0H2YPC2).
T1 construct: gene CPF_0414
The settings on record: read-out: CpeCA^bβ; CO2 1.7-17 mM, 20 mM TRIS pH 8.3, 20 mM Na2SO4, 15 min pre-incubation at room temperature; errors 5-10%.

Protein sequences, listed by entry. Tags and fused reporters are not part of them. Residues count along the entry.
UniProt A0A0H2YPC2, 1-190: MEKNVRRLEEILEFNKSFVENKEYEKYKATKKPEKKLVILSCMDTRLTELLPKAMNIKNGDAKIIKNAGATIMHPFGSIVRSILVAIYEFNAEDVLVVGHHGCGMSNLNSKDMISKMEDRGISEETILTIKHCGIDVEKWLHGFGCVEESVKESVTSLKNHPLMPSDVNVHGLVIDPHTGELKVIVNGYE

The results in this text go back to paper PMC6009973 (Journal of Enzyme Inhibition and Medicinal Chemistry, 2017).

Turning to `CC(=O)Nc1nnc(S(N)(=O)=O)s1` [AAZ, acetazolamide], the Ki was determined as 49.1 nM.

`CCN[C@H]1C[C@H](C)S(=O)(=O)c2sc(S(N)(=O)=O)cc21` [DZA, dorzolamide]: the Ki was determined as 37.4 nM.
